In assay [1] the target is T1, human CCR8 (human, UniProt P51685 1-355).
T1 construct: also called hCCR8
Kind of assay: flow cytometry, epitope mapping on transfected HEK293 cells.

By UniProt entry, the sequences of proteins in these tests, tags left out. Where a name states a change or a piece, a line headed by the entry shows the natural chain unless it says otherwise.
UniProt P51685: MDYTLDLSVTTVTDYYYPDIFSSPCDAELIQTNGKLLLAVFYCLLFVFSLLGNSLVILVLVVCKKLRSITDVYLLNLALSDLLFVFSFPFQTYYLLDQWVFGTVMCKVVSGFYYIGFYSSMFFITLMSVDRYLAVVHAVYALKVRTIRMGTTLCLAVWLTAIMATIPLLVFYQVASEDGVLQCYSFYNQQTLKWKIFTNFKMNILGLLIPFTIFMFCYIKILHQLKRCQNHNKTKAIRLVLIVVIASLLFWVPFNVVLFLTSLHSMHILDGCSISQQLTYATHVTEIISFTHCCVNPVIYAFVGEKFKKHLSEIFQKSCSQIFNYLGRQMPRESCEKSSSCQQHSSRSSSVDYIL

The target of assay [2] is N-terminal deletion human CCR8 (delta 18-3XHA) (human) (UniProt P51685). Kind of assay: flow cytometry; an extracellular loop binder is defined in paragraph 224 as binding on hCCR8 cells and on human CCR8 (delta18-3XHA).
Assay [3] has as its target T1, human CCR8. As to the kind of experiment: flow cytometry, human CCR8 stably expressed in HEK293 cells. A general note: Flow cytometry measures light scatter and fluorescence of single cells or particles in a stream.
Assay [4] deals with T1, human CCR8. As to the kind of experiment: flow cytometry competition with FLAG3-His6 tagged parental VHH-62 on hCCR8 cells.

These are yes or no findings as the source states them, for the method shown. Some results given as binding are weak or reduced against the parent protein; the word gives no strength.

B1: VHH-62 (VHH, not shown: small tags and cut ends)
VHH: EVQLVESGGGLVQPGGSLRLSCAASGFSFSSFALSWYRQAPGKERELVARITTTGATNYADSVKGRFTISRDNAKNMGYLQMNSLRPEDTAVYYCNARARLSSVFDYWGQGTLVTVSS
Turning to B1, the binding result in assay [1], in assay [2] and in assay [3] was “binds” in each case.

B2: VHH-81 (VHH, not shown: small tags and cut ends)
VHH: DVQLVESGGGLVQPGGSLRLSCAASGFSFSSFALSWYRQAPGKERELVARITTTGATNYADSVKGRFTISRDNAKNTVYLQMNSLRPEDTAVYYCNARARLWSVFDYWGQGTLVTVSS
In the case of B2, the binding result in assay [4] is “binds”.

The record behind these values is US20240076391A1 (ONCURIOUS, published 2024).
